{
  "source": "PubChem BioAssay AID540276",
  "about": "(National Center for Advancing Translational Sciences (NCATS), 2011)",
  "note": "“And” between values parts separate entries of the source, which are not always exact repeats. Equal entries are not always repeated. The campaign covered roughly 300,000 compounds. About 5,400 (1.8%) were called active. Inconclusive means that the source gave no clear call. Such entries were picked first, then a sample of the others. The call rests on the fitted dose curve; tested in HEK293 cells. Where the call is inconclusive, the potency comes from a doubtful curve fit. Potency means the concentration at half of the fitted maximal effect.",
  "data": [
    {"experiment": "qHTS for inhibitors of binding or entry into cells for Marburg Virus", "conditions": "Marburg virus pseudotyped entry inhibition, cell reporter; series mostly up to 37.8 µM", "values": [
      {"molecule": "COc1ccc(NC(C)=O)cc1NC(=O)CSc1nc2ncccc2[nH]1", "Potency": "inconclusive: 6.31 µM [activator, single point]"},
      {"molecule": "Cc1ccc2c(C(=O)CN3CCN(C(=O)c4ccco4)CC3)c(C)[nH]c2c1", "Potency": "inactive"},
      {"molecule": "CN(C)S(=O)(=O)c1cccc(NC(=S)N/N=C/c2ccc(O)c(O)c2O)c1", "Potency": "inactive"},
      {"molecule": "Cc1ccc(C(=O)N/C(=C\\c2cccs2)C(=O)NCCCN2CCOCC2)cc1", "Potency": "inconclusive: 5.62 µM [activator, single point]"},
      {"molecule": "COc1cc(OC)c(/C=N/NC(=O)c2ccc(NC(C)=O)cc2)cc1Br", "Potency": "inconclusive: 20 µM [activator, single point]"},
      {"molecule": "Cc1ccc(/C=C2/C(=O)NC(=O)N(C)C2=O)cc1", "Potency": "inconclusive: 0.355 µM [activator, partial curve, poor fit]"},
      {"molecule": "Cc1cccc(Oc2ccc3c(c2)Oc2ccccc2NC3=O)c1", "Potency": "inactive"},
      {"molecule": "Cc1nnc2c(Oc3ccccc3)nc3ccccc3n12", "Potency": "inconclusive: 0.282 µM [activator, full curve, poor fit]"},
      {"molecule": "COc1ccc(-c2cc(C(=O)NCC(c3ccccc3)N(C)C)c3ccccc3n2)cc1OC", "note": "(stereo unspecified)", "Potency": "inconclusive: 25.1 µM [inhibitor, partial curve, poor fit]"},
      {"molecule": "COc1cc(/C=C2\\NC(=O)NC2=O)cc(Br)c1OC", "Potency": "inconclusive: 5.01 µM [inhibitor, partial curve, poor fit]"},
      {"molecule": "CS(=O)(=O)c1ccc(Cl)c(NC(=O)c2cc(S(=O)(=O)N3CCOCC3)ccc2N2CCCC2)c1", "Potency": "inactive"},
      {"molecule": "COC(=O)c1cc(C#N)c(NCc2ccccc2)nc1C", "Potency": "inconclusive: 2.82 µM [inhibitor, single point]"},
      {"molecule": "CC(C)CCNC(=O)NC(=O)COC(=O)/C=C/c1cnc2ccccc2n1", "Potency": "inconclusive: 6.31 µM [inhibitor, single point]"},
      {"molecule": "COc1ccc(C2CC(=O)c3ccccc3O2)cc1", "note": "(stereo unspecified)", "Potency": "inactive"},
      {"molecule": "O=C1/C(=C/c2ccc(N3CCOCC3)o2)SC(=Nc2ccccc2)N1CCc1c[nH]c2ccccc12", "Potency": "inconclusive: 2.82 µM [inhibitor, full curve, poor fit]"},
      {"molecule": "CCOC(=O)c1c(NC(=O)CSc2nnc(CNc3ccc(OC)cc3)n2C)sc(C)c1C", "Potency": "inconclusive: 35.5 µM [inhibitor, single point]"},
      {"molecule": "Cc1ccc(-c2cc(C(F)F)nc(S(C)(=O)=O)n2)cc1", "Potency": "inconclusive: 20 µM [inhibitor, partial curve, poor fit]"},
      {"molecule": "C[C@H]1CCC[C@@H](O)CCC/C=C/c2cc(O)cc(O)c2C(=O)O1", "Potency": "inconclusive: 8.2 µM [inhibitor, partial curve, poor fit]"},
      {"molecule": "O=C1CC(c2cccc(Cl)c2)c2cc3c(cc2N1)CCC3", "note": "(stereo unspecified)", "Potency": "inconclusive: 8.2 µM [inhibitor, partial curve]"},
      {"molecule": "O=C(Oc1c(-c2ccccc2)c(=O)n2c3c(cccc13)CC2)c1ccccc1", "Potency": "inconclusive: 8.91 µM [inhibitor, partial curve, poor fit]"},
      {"molecule": "COCCOC(=O)C1=C(N)Oc2c(c(=O)oc3ccccc23)C1c1ccncc1", "note": "(stereo unspecified)", "Potency": "inconclusive: 1.16 µM [inhibitor, full curve]"},
      {"molecule": "COc1ccc(C(=O)Nc2nnc(C(F)(F)F)s2)cc1", "Potency": "inconclusive: 0.794 µM [inhibitor, full curve, poor fit]"},
      {"molecule": "O=C(Nc1nncs1)c1cc2c(s1)CCC2", "Potency": "inconclusive: 0.631 µM [activator, full curve]"},
      {"molecule": "O=[N+]([O-])c1ccc(N/N=C/c2cccc(O)c2O)cc1", "Potency": "inconclusive: 3.55 µM [activator, single point]"},
      {"molecule": "CC(C)c1ccccc1NC(=S)NC(C)c1ccccc1", "note": "(stereo unspecified)", "Potency": "inconclusive: 11.2 µM [inhibitor, partial curve, poor fit]"},
      {"molecule": "COc1ccc(NC(=O)CCSc2ccc(F)cc2)cc1", "Potency": "inconclusive: 6.31 µM [activator, partial curve, poor fit]"},
      {"molecule": "CCCCn1c(-c2ccccc2)cnc1SCC(=O)NCCc1ccc(OC)c(OC)c1", "Potency": "inconclusive: 29.1 µM [inhibitor, single point]"},
      {"molecule": "CCc1ccc(CN(C(=O)c2cccs2)C2CCS(=O)(=O)C2)cc1", "note": "(stereo unspecified)", "Potency": "inconclusive: 22.4 µM [activator, single point]"},
      {"molecule": "CC12CCC(C(=O)N3CCN(C(c4ccccc4)c4ccccc4)CC3)(OC1=O)C2(C)C", "note": "(stereo unspecified)", "Potency": "inconclusive: 29.1 µM [inhibitor, single point]"},
      {"molecule": "O=C(O)c1cc(NCc2ccccc2)ccc1N1CCOCC1", "Potency": "inactive"},
      {"molecule": "CCN(CC)C(=O)CSc1nnc(-c2ccccc2)n1N", "Potency": "inactive"},
      {"molecule": "CCOC(=O)C1=C(C)Nc2sc(C(=O)c3ccc(OC)cc3)c(N)c2C1c1ccc(C(=O)OC)cc1", "note": "(stereo unspecified)", "Potency": "inconclusive: 32.6 µM [inhibitor, single point]"},
      {"molecule": "CC(=O)c1ccc(N(C(=O)Cn2nnc(-c3ccccc3)n2)C(C(=O)NC2CCCCC2)c2ccccn2)cc1", "note": "(stereo unspecified)", "Potency": "inactive"},
      {"molecule": "COc1cccc(N(C(=O)Cn2nnc(-c3cccs3)n2)C(C(=O)NC(C)C)c2ccc(C)o2)c1", "note": "(stereo unspecified)", "Potency": "inconclusive: 0.251 µM [inhibitor, full curve, poor fit]"},
      {"molecule": "Cc1ccccc1C(=O)Nc1sc2c(c1C(=O)O)CCC2", "Potency": "inconclusive: 29.1 µM [inhibitor, single point]"},
      {"molecule": "Cc1ccc([N+](=O)[O-])cc1NC(=O)CN(C1CCCCC1)S(=O)(=O)c1ccc(Cl)cc1", "Potency": "inconclusive: 17.8 µM [inhibitor, single point]"},
      {"molecule": "COc1ccc(N(C(=O)c2ccco2)C(C(=O)NC2CCCC2)c2cccs2)cc1OC", "note": "(stereo unspecified)", "Potency": "inactive"},
      {"molecule": "O=C(NC(=S)NCCN1CCOCC1)c1ccc(F)cc1", "Potency": "inconclusive: 1.26 µM [activator, single point]"},
      {"molecule": "COc1cccc(C(=O)N2CCCC(CCC(=O)NCc3ccc(F)c(F)c3)C2)c1", "note": "(stereo unspecified)", "Potency": "inactive"},
      {"molecule": "COc1cc(C(=O)N/N=C/C23CC[C@@H](O)CC2(O)CC[C@@H]2[C@@H]3CCC3(C)C(C4=CC(=O)OC4)CCC23O)ccc1O", "note": "(stereo partly specified)", "Potency": "inconclusive: 15.8 µM [inhibitor, partial curve, poor fit]"},
      {"molecule": "COC(=O)c1ccc(OCC2c3cc(OC)c(OC)cc3CCN2C(=O)c2ccco2)cc1", "note": "(stereo unspecified)", "Potency": "inactive and inconclusive: 23.1 µM [inhibitor, single point]"}
    ]}
  ]
}
